Measured values as given in article PMC12407369.
These are yes or no findings as the source states them, for the method shown. In cells and extracts the contact can be indirect. Some binding calls cover weakened binding; strength is not graded here.

Chains of the proteins cited; added tags and fusions are not shown. Lines headed by an entry give the natural chain unless they say otherwise; changes in a name come on top.
UniProt P11388: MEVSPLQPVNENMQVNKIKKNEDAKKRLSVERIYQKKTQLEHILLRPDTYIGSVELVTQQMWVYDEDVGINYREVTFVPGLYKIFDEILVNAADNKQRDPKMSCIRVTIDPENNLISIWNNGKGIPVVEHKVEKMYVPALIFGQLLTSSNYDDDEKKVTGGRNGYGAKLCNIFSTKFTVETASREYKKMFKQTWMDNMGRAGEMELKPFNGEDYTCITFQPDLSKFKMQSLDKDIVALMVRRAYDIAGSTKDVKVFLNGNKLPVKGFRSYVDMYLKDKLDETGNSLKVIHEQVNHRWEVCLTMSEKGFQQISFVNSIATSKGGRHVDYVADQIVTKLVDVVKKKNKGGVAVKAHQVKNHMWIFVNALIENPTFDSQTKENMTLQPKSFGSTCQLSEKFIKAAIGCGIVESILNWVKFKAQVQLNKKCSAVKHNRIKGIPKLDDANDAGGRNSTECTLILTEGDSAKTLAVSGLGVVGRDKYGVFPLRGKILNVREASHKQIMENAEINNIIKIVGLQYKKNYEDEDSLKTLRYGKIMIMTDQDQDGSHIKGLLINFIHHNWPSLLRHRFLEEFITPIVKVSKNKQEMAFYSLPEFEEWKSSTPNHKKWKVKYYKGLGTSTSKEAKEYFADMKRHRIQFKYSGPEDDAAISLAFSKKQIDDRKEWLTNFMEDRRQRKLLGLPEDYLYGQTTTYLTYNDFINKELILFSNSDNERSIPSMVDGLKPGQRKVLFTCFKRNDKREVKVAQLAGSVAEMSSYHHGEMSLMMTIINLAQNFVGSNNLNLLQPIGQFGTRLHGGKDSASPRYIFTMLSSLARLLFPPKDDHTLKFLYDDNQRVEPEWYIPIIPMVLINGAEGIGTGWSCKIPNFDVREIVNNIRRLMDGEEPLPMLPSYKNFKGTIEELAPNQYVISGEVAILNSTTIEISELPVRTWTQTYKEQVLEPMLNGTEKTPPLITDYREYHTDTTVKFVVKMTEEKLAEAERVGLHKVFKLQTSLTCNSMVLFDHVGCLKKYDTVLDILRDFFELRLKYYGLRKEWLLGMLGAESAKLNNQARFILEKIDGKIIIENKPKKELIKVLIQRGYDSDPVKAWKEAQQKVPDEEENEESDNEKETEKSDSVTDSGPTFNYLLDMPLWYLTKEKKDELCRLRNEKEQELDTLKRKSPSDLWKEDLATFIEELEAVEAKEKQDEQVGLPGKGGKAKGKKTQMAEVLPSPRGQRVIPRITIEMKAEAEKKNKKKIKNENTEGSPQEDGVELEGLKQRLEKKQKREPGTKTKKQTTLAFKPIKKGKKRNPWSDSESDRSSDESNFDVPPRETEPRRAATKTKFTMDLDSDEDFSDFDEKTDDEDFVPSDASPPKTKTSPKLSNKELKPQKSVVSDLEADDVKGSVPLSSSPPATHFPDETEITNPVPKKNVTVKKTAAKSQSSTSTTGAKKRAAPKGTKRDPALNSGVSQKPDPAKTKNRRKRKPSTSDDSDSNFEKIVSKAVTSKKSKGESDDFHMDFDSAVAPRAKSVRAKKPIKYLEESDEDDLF
UniProt O00762: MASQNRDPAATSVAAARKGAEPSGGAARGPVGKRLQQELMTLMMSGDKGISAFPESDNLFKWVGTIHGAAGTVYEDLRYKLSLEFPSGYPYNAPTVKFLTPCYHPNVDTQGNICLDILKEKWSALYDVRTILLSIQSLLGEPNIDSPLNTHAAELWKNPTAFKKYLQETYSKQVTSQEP

Target: topoisomerase II-alpha (TOP2A) (human (endogenous in MDA-MB-231 and T47D)) (UniProt P11388)
Assay: co-IP; endogenous proteins in MDA-MB-231 and T47D cells; which of the two was precipitated is not told

binding: binds
Substance: Ubiquitin-conjugating enzyme 2C (UBE2C) (from UniProt O00762 1-179)
